In patent publication US20230210853A1 (Halia Therapeutics, Inc., priority 2020, published 2023):
The structures given here were assigned with low confidence; some may be wrong.

Sequences of proteins named here, by UniProt entry; tags and fusion partners are left off.
UniProt Q8TDX7, whole entry: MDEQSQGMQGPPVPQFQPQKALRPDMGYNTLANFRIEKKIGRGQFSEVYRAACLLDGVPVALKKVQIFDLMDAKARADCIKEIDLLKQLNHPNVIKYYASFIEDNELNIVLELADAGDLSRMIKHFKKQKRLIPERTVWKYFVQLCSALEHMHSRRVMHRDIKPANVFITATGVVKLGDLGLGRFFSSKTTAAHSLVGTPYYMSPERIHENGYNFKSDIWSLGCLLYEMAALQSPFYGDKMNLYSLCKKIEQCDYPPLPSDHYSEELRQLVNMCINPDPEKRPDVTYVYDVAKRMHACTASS

Target: full-length recombinant human NEK7 (Homo sapiens, UniProt Q8TDX7)
Assay: NEK7 enzymatic assay ([33P]-ATP, casein substrate)
Details: read-out: NEK7 IC50, Table 2d
Procedure: In some embodiments, the IC50 of the compounds of Structure (I), (Ia), (Ib), (Ic), (Id), (Ie), or (If) to inhibit NEK7 was determined by the concentration of the compound required to inhibit 50% of the activity of the NEK kinase.
(§1) Casein substrate (from bovine milk, hydrolyzed and partially dephosphorylated mixture of α, β and κ caseins, obtained from Sigma Aldrich, catalogue #C4765, diluted in distilled water to a final concentration of 1 mg/mL) and full-length recombinant human NEK7 (expressed by baculovirus in Sf9 insect cells using a N-terminal GST tag, obtained from SignalChem, catalogue #N09-10G, 0.1 μg/μL) were mixed in assay buffer (20 mM Hepes pH 7.5, 10 mM MgCl2, 1 mM EGTA, 0.02% Brij35, 0.02 mg/ml BSA, 0.1 mM Na3 VO4, 2 mM DTT, 1% DMSO). Compounds of interest (serial 3-fold dilution in DMSO from 10 μM to 0.5 nM) or vehicle (1% DMSO) were dispensed into the kinase reaction mixture by Acoustic technology (Echo550, nanoliter range). After incubation at room temperature for 20 minutes, the kinase reaction was initiated by addition of [^33P]-ATP (specific activity 10 μCi/μl) and the mixture was incubated at room temperature for 2 hours. The reaction was then stopped by spotting the reaction mixture on strips of phosphocellulose P81 paper. Following washing, the radioactivity of the P81 paper was measured and kinase activity data were expressed as the percent remaining kinase activity in test samples compared to vehicle reactions. IC50 values and curve fits were obtained using Prism (GraphPad Software).
as §1, with “μg/L)” for “μg/μL)”, “Na3VO4,” for “Na3 VO4,”, “(Echo550;” for “(Echo550,”

SMILES | IC50 [nM]
CN1CCN(Cc2ccc(NC(=O)Nc3ccc(-c4cn(C5CC5)c5ncnc(N)c45)cc3F)c(C(F)(F)F)c2)CC1 | > 1500
CN1CCN(Cc2ccc(NC(=O)Nc3ccc(-c4cn(C)c5ncnc(N)c45)cc3F)cc2C(F)(F)F)CC1 | < 150
CN1CCN(Cc2ccc(NC(=O)Nc3ccc(-c4cn(C5CC5)c5ncnc(N)c45)cn3)cc2C(F)(F)F)CC1 | < 150
CC(c1ccc(NC(=O)Nc2ccc(-c3cn(C4CC4)c4ncnc(N)c34)cc2F)cc1C(F)(F)F)N1CCN(C)CC1 (centres unmarked) | > 1500
CN1CCN(Cc2ccc(NC(=O)Nc3ccc(-c4cn(CC(C)(C)O)c5ncnc(N)c45)cc3F)cc2C(F)(F)F)CC1 | < 150
CN1C[C@@H]2CN(Cc3ccc(NC(=O)Nc4ccc(-c5cn(C6CC6)c6ncnc(N)c56)cc4F)cc3C(F)(F)F)C[C@@H]2C1 | < 150
CN1CCN(Cc2ccc(NC(=O)Nc3ccc(-c4cn(C5CC5)c5ncnc(N)c45)cc3F)cc2C(F)(F)F)C2(CC2)C1 | 301 to 500

Test system: IL-1β release
Assay: IL-1β release assay (PMA-differentiated THP-1 cells, LPS + nigericin, cleaved IL-1β by JESS)
Details: read-out: IL-1β release IC50, Table 2d
Procedure: Approximately 1.5 million THP-1 cells were plated in each well of a 6-well TC plate and incubated with 40 nM PMA in RPMI (10% FBS, 1% Penstrep) for 24 hours. The media was then removed and cells were rested in RPMI (10% FBS, 1% Penstrep) for 24 hours after which time the media was removed and cells were pre-treated for 2 hours with various concentrations of compounds of interest (typically serial 3-fold dilution in RPMI +5% FBS, concentrations ranging from 1 μM to 0.5 nM) in RPMI (5% FBS). The media was again removed and cells were incubated with 250 ng/mL LPS and compounds of interest (concentrations as above) in RMPI (5% FBS) for 2 hours. The media was removed for a last time and cells were incubated with 20 μM nigericin and compounds of interest (concentrations as above) in Opti-MEM for 30 minutes. Cell media was then collected and the amount of cleaved IL-1β was determined using a JESS instrument (Protein Simple) and standard protocols. Cleaved […] antibody was obtained from Cell Signaling (catalogue #83186S) and was used at 1:20 dilution in antibody diluent 2. […]
Approximately 1.5 million THP-1 cells were plated in each well of a 6-well TC plate and incubated with 40 nM PMA in RPMI (10% FBS, 1% Penstrep) for 24 hours. […] Cell media was then collected and the amount of cleaved IL-1β was determined using a JESS instrument (Protein Simple) and standard protocols. […]

SMILES | IC50 [nM]
CN1CCN(Cc2ccc(NC(=O)Nc3ccc(-c4cn(C)c5ncnc(N)c45)cc3F)cc2C(F)(F)F)CC1 | < 150
